For 42 sequences, binding signal results are on record in article PMC7819943, “Rice protein-binding microarrays: a tool to detect cis-acting elements near promoter regions in rice”.

By UniProt entry, the sequences of proteins in these tests, tags left out.
UniProt Q0JBA9, entry or part of it: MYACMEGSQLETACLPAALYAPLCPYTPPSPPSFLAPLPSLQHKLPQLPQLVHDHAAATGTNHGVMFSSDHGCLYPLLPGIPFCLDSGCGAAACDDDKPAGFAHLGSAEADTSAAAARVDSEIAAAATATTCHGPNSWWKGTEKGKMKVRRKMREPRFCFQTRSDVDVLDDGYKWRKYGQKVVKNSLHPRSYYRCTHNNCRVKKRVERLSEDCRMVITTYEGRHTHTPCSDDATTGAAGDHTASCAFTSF

The list shows a part of the results.

The experiment addresses OsWRKY34 (Oryza sativa, UniProt Q0JBA9 1-250). The experiment in a line: protein-binding microarray (RPBM); PBS, 2% BSA, 51.3 ng/ul salmon testes DNA, 50 uM zinc acetate, 200 nM TF, 25 C, 1 h; high values mean tight binding. Conditions: protein: recombinant; tags: N-terminal polyhistidine and DsRed monomer fusion (pET32a); label: CyDye5-dUTP incorporated in the synthesized complementary strand; 3' TTTTT single-stranded linker to array surface; dsDNA, one strand shown. Summed up:
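Transcription factors were each fused at the N-terminus to a polyhistidine tag plus DsRed and expressed in E. coli BL21-CodonPlus before Ni–NTA purification. Binding to a double-stranded custom Agilent array was carried out with 200 nM protein at 25 °C for 1 h in PBS, 2% BSA, salmon testes DNA and 50 µM zinc acetate. The binding signal is per-feature fluorescence intensity, in arbitrary units, on an Axon 4000B scanner.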
As for “TCCCATGCCCACTTTGCATTCTAATTCGACATCGCCAACACGGAGTCACCTAGTGCAG”, the binding signal was 8630 fluorescence intensity (a.u.).
Consider “GTCGTTTAACTATCCGTCTTATTTTTAAAAAATATGAATTCGGAGTCACCTAGTGCAG”, for which the binding signal is 8420 fluorescence intensity (a.u.).
In the case of “TACCACCCTTATCGATCTCTATCTGGTTTCCTTTACCTTTCGGAGTCACCTAGTGCAG”, the binding signal is 8410 fluorescence intensity (a.u.).
In the case of “GCGCGCCAAGTTACCGTCATTGCACTCCGACTCCCGATTTCGGAGTCACCTAGTGCAG”, the binding signal is 12800 fluorescence intensity (a.u.).
With “AATTTTAGTCTATGGTTGCTCACATTTTCTGTTAAATTTTCGGAGTCACCTAGTGCAG” the figure was 11700 fluorescence intensity (a.u.); with “TATTTGCACAGCAACTTTGTATGGCCTTCTTTTTTCTTTTCGGAGTCACCTAGTGCAG”, 8590 fluorescence intensity (a.u.).
With “TCCCGTCTCCGCACCACACAGGCAGCCACACACACACCACCGGAGTCACCTAGTGCAG”, the binding signal is 8700 fluorescence intensity (a.u.).
In the case of “AAGAAAATCTACGCATACACCATTTTTCCTGTTTTTAAACCGGAGTCACCTAGTGCAG”, the binding signal is 8070 fluorescence intensity (a.u.).
In the case of “GTCCTGCCGCTTCCGCCGCATCCTGGTGAGCACATCCTCCCGGAGTCACCTAGTGCAG”, the binding signal was 8020 fluorescence intensity (a.u.).
“ATAATCCTCATAATTCCATCTATTCAGTTTGCTCCAAATTCGGAGTCACCTAGTGCAG”: the binding signal was 8120 fluorescence intensity (a.u.).
Turning to “ATATGTATATGTGGTTTTCTGATCTTCCATGTTTCACAAACGGAGTCACCTAGTGCAG”, the binding signal was 8720 fluorescence intensity (a.u.).
“AAGCTGACTCCACAACTTTTGTTCTAGTAGTATATTTCTTCGGAGTCACCTAGTGCAG”: the binding signal was 14000 fluorescence intensity (a.u.).
As to “AGCAGATTGGTCTCTTTGACTCTCCTTGTGCGAGAGATTGCGGAGTCACCTAGTGCAG”, the binding signal was 8220 fluorescence intensity (a.u.).
“TGGTGACGATGGTGATGTTCTTGTTGTTGGTTTTTCCTTTCGGAGTCACCTAGTGCAG”: the binding signal is 9530 fluorescence intensity (a.u.).
Regarding “CAAACAGTTGCTCCTTTGTTATTATTCTTCCTTTCTCATTCGGAGTCACCTAGTGCAG”, the binding signal is 12400 fluorescence intensity (a.u.).
As to “ACATCCTATGTCCAGATTCGTAGTACTAAGTTGATTTTTTCGGAGTCACCTAGTGCAG”, the binding signal is 9420 fluorescence intensity (a.u.).
The value for “TTTGATTTTTTTTCTAATTGTACTTTACTTTACATCATTTCGGAGTCACCTAGTGCAG” was 12200 fluorescence intensity (a.u.); that for “ACCTCCGTGTCTTTATGTGATCTGTCTAGTTGACCCTATTCGGAGTCACCTAGTGCAG” was 11500 fluorescence intensity (a.u.).
On to “AGTTCCTGCTTACTGCCACCTAATCTGCCATTTTCTTTTTCGGAGTCACCTAGTGCAG”, for which the binding signal was 8860 fluorescence intensity (a.u.).
With “GACTTGTCTTCCGAATTTCTATCTTTTGCCAGATCACCACCGGAGTCACCTAGTGCAG”, the binding signal is 8400 fluorescence intensity (a.u.).
Take “TATTATTCTCGCAATGTCCTTAGCTCCACAAGCAGACCAACGGAGTCACCTAGTGCAG”: the binding signal was 8250 fluorescence intensity (a.u.).
In the case of “GTTAGCTAGGTGCTTCATCTTATTTTCTTATTTTGCATTTCGGAGTCACCTAGTGCAG”, the binding signal was 11500 fluorescence intensity (a.u.).
For “ACAAGATAAAGGTGTGGTTTGTATGGGCTGCATATCATCACGGAGTCACCTAGTGCAG”, the binding signal was 8030 fluorescence intensity (a.u.).
As for “CCCGTCGTCGTCTCCTATTCGCTCTCCCGCCGCCTACAAACGGAGTCACCTAGTGCAG”, the binding signal was 10900 fluorescence intensity (a.u.).
With “GAGTTTTTGGCTTAACCTCAAACCAATGTGCCATCATGTCCGGAGTCACCTAGTGCAG” the figure was 8180 fluorescence intensity (a.u.); with “ACATCGCCACATTACTCCGCCCTTTTAGACGCTTGTCTGCCGGAGTCACCTAGTGCAG”, 9890 fluorescence intensity (a.u.); with “CTCATCCTTTGGCACTACGGATTTTCTTGGCCAATGACCACGGAGTCACCTAGTGCAG”, 8350 fluorescence intensity (a.u.).
With “TCTTCCTCTCTGTTTTGTCCTTCTGATTTCTGCCATTGATCGGAGTCACCTAGTGCAG”, the binding signal was 9960 fluorescence intensity (a.u.).
Take “CCCCACGATTTGTCCTCACATGGCCACGCCCAGAACGGCCCGGAGTCACCTAGTGCAG”: the binding signal was 9740 fluorescence intensity (a.u.).
In the case of “CTGGCGAGCAGAGCAAGGGAGGGGAGGGGAGGGGATCCTGCGGAGTCACCTAGTGCAG”, the binding signal is 15500 fluorescence intensity (a.u.).
Take “AGACAGAAGTCACCTCCCTTACCTTCCCTTTTTCGAGATCCGGAGTCACCTAGTGCAG”: the binding signal was 8100 fluorescence intensity (a.u.).
As for “GTGGTGGTGTCATATGTCTCTGCTGCGATAGTAAATCCTACGGAGTCACCTAGTGCAG”, the binding signal is 8570 fluorescence intensity (a.u.).
For the sequence “GCCGCGCTCGCTCACCGCTGCTCCGCCGCCGCACTCGCGCCGGAGTCACCTAGTGCAG”, the binding signal is 8170 fluorescence intensity (a.u.).
With “CACCATGCTAGTTTGTTGTAATAGGAGGGGTCATATTAGTCGGAGTCACCTAGTGCAG”, the binding signal is 8820 fluorescence intensity (a.u.).
With “ATGAGTGGTTAGTTGCGTGTGGTGTCTTATTCATTTATCCCGGAGTCACCTAGTGCAG”, the binding signal was 9260 fluorescence intensity (a.u.).
As for “GGTTATCATTCTGTTCCAAGTCAATTCTTGCATCAATAACCGGAGTCACCTAGTGCAG”, the binding signal was 13200 fluorescence intensity (a.u.).
For “TTTAAACCATGTTCTGTCCTATCAGTTTTCACTTGCTACTCGGAGTCACCTAGTGCAG”, the binding signal is 9800 fluorescence intensity (a.u.).
With “GCACTTTTTTTATTTTCAACCGGAACTAAAGATTATTTTTCGGAGTCACCTAGTGCAG” the figure was 8340 fluorescence intensity (a.u.); with “TGCATTGACCAGGTCAACGGGAGAGGGAGGGGCAAAATCGCGGAGTCACCTAGTGCAG”, 19600 fluorescence intensity (a.u.); with “ATCCCCGTGTTCTCCCCACACAAACCTTCGCGCCGCCCATCGGAGTCACCTAGTGCAG”, 9540 fluorescence intensity (a.u.).
In the case of “CACCGCCGTCGCCTTCGTCCTCCCACCGTGGAAGCCTCGCCGGAGTCACCTAGTGCAG”, the binding signal was 8480 fluorescence intensity (a.u.).
Take “ATAAACCTATTCATGTCGTATATTACTTATTAATTTCTCCCGGAGTCACCTAGTGCAG”: the binding signal is 9740 fluorescence intensity (a.u.).
